Drawing on publication PMC7819943, “Rice protein-binding microarrays: a tool to detect cis-acting elements near promoter regions in rice”, this text covers binding signal for 42 sequences.

Some of the results follow.

This assay has as its target T1, OsSMF1 (Oryza sativa, UniProt Q6ZLB0 1-436).
T1 sequence: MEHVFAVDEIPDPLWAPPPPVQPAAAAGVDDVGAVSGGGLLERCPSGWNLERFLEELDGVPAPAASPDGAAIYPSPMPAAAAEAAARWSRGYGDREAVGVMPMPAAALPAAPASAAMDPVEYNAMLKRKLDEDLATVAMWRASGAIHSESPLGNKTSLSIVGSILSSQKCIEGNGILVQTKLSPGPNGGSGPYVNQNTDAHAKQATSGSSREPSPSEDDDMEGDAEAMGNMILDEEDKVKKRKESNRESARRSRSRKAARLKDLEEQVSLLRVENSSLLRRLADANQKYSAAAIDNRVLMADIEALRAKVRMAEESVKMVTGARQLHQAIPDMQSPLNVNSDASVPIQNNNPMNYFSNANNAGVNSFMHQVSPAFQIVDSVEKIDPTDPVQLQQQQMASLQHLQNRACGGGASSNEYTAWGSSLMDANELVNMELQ
Put plainly: protein-binding microarray (RPBM); PBS, 2% BSA, 51.3 ng/ul salmon testes DNA, 50 uM zinc acetate, 200 nM TF, 25 C, 1 h; high values mean tight binding. The following applies: protein: recombinant; tags: N-terminal polyhistidine and DsRed monomer fusion (pET32a); chain copies: 2; label: CyDye5-dUTP incorporated in the synthesized complementary strand; 3' TTTTT single-stranded linker to array surface; dsDNA, one strand shown. The method, boiled down: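 Binding signal is defined as the fluorescence intensity of each feature in arbitrary units, read on an Axon 4000B scanner. Transcription factors with N-terminal polyhistidine and DsRed fusions came from E. coli BL21-CodonPlus and were purified on Ni–NTA. They were incubated at 200 nM for 1 h at 25 °C on a custom Agilent array that had been made double-stranded with Cy5-dUTP, with 50 µM zinc acetate present, and the array was washed.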
As to “TTTTCTATCACATCGTTTTAATTTCAATCAAACTTCCAATCGGAGTCACCTAGTGCAG”, the binding signal is 45300 fluorescence intensity (a.u.).
As for “TCCGGGCGTGACACACGATGATTCCACACCCGCCCCACCTCGGAGTCACCTAGTGCAG”, the figure is 6160 fluorescence intensity (a.u.); as for “CCGACGCCGACCCCTTCTCCCAATCTGCGGATTCCAGCGGCGGAGTCACCTAGTGCAG”, 19500 fluorescence intensity (a.u.).
In the case of “GATGGTCGTGGTGCATCCATGACGCTCTATCTTCTCCAGCCGGAGTCACCTAGTGCAG” it was 4520 fluorescence intensity (a.u.); in that of “TGGCTGCTGCATGGTTGTTTGCATGGCCGTTGCAGTGTTGCGGAGTCACCTAGTGCAG”, 4380 fluorescence intensity (a.u.).
In the case of “AGTTCAAGAAAACTTTATATTCAAACAAGAAAATTGGGGCCGGAGTCACCTAGTGCAG” it was 40900 fluorescence intensity (a.u.).
On to “ACCCGTCTCTGTTCATCTCCACATCTTGTCTTCTCGCTGTCGGAGTCACCTAGTGCAG”, for which the binding signal was 3160 fluorescence intensity (a.u.).
In the case of “TTCCTATGGAAAGCGTTGATCCCGCTTCACAAGCCAAAGACGGAGTCACCTAGTGCAG” it was 23300 fluorescence intensity (a.u.); in that of “GATATGGTAATTTAGTGTCCATTATGGTGTTTCTTAATTGCGGAGTCACCTAGTGCAG”, 4310 fluorescence intensity (a.u.).
“GTCGCAGCATCCACGCCACGCCACGCCACGCCACGCGTTTCGGAGTCACCTAGTGCAG”: the binding signal was 9850 fluorescence intensity (a.u.).
In the case of “ATCTCGCTTCCATTTCTTCGCCATTTGAGCTTTCTTGGAGCGGAGTCACCTAGTGCAG” it was 21800 fluorescence intensity (a.u.).
As for “TCGTTGCCTCTCCTCCTCCTCGTCACCTCACCTGCACCTGCGGAGTCACCTAGTGCAG”, the figure is 4020 fluorescence intensity (a.u.); as for “GGCGGTGAACCCAGAGCCAGTGACCATTCCACCAGGTGAACGGAGTCACCTAGTGCAG”, 3680 fluorescence intensity (a.u.).
In the case of “GACGTGATAAAGAAGTTCAGATTTAGAAATAAATTTGAAGCGGAGTCACCTAGTGCAG” it was 3820 fluorescence intensity (a.u.); in that of “GCGGACGCTGAGCTACGCCACATCGGATAGGAATAGTGCGCGGAGTCACCTAGTGCAG”, 6290 fluorescence intensity (a.u.).
For “CTATCAAATATCTGATGTAATCAATTTGTCACTAGACTACCGGAGTCACCTAGTGCAG”, the binding signal was 3210 fluorescence intensity (a.u.).
As for “ACATTACCAAATTTTAACAATGCCAAAATTTTGGTAAGGTCGGAGTCACCTAGTGCAG”, the figure is 3450 fluorescence intensity (a.u.).
In the case of “TGTTGTGATACACATCATTTGGAGCCCTGACTATTCCAGGCGGAGTCACCTAGTGCAG” it was 3200 fluorescence intensity (a.u.); in that of “CCTATAGCTAGCTAGCTCGTCACACACACCTCACAGGCTCCGGAGTCACCTAGTGCAG”, 3820 fluorescence intensity (a.u.); in that of “CCGTGCCGAGTCCGAGATGCCGAGAGCCGTGGCACGTCACCGGAGTCACCTAGTGCAG”, 9970 fluorescence intensity (a.u.).
Regarding “CAAGTTTAGGGACCGGGATGACACAATTGAACAAGTTTGACGGAGTCACCTAGTGCAG”, the binding signal is 3510 fluorescence intensity (a.u.).
As for “CGCCTGGGAGCTGTACGGGTGCGTCCTCGTCTCGCTGGCGCGGAGTCACCTAGTGCAG”, the figure is 3230 fluorescence intensity (a.u.).
In the case of “GCCCAGTCCACCATCGTCGTCACCCACGAGGAGACGCCGCCGGAGTCACCTAGTGCAG” it was 4630 fluorescence intensity (a.u.).
As for “GTATTGACAGCCACTCGGCCTATCCATTTTGCGTCCAATACGGAGTCACCTAGTGCAG”, the figure is 16200 fluorescence intensity (a.u.); as for “TTGTATGTAAATTGTGAGACGAATCTTTTGAGCCTAATTACGGAGTCACCTAGTGCAG”, 32500 fluorescence intensity (a.u.); as for “ATTCTCTTGTGTGCAGCACTATCGTCAGTGGCCACGCTTGCGGAGTCACCTAGTGCAG”, 3860 fluorescence intensity (a.u.).
In the case of “CAACTTTGGAAGAACTAAACACAGCATATGACAGTGCAGTCGGAGTCACCTAGTGCAG”, the binding signal was 4130 fluorescence intensity (a.u.).
In the case of “GGCATGGGCCCTGCGGTTCGGCGGCAGTGACGAGCGGCAACGGAGTCACCTAGTGCAG” it was 3930 fluorescence intensity (a.u.); in that of “TCCGCCTCGGCGCCACCTGACTCAGCCTCCCCTCCCCGGCCGGAGTCACCTAGTGCAG”, 10900 fluorescence intensity (a.u.); in that of “TCCACCACCGCGGCAAGTTCTACTCCATCACCTACTCCGGCGGAGTCACCTAGTGCAG”, 3720 fluorescence intensity (a.u.).
As for “CCTGGTGTAGACTCTAGTACCAGATGTCGTGGGAGATTTTCGGAGTCACCTAGTGCAG”, the binding signal was 3970 fluorescence intensity (a.u.).
As for “GTGCGGCGTGCCGTACACCGGCGCCAGCATCGCCGTGCTTCGGAGTCACCTAGTGCAG”, the binding signal was 3560 fluorescence intensity (a.u.).
Regarding “TATCCAGTTGGGCACATTTGACCTGTCTCTGACCTGACAACGGAGTCACCTAGTGCAG”, the binding signal was 3760 fluorescence intensity (a.u.).
In the case of “TTACAGGATTATATATCATGTTTATCTATTCGTCTTACTACGGAGTCACCTAGTGCAG” it was 39500 fluorescence intensity (a.u.); in that of “CACTCGCGCCACCCAATTGCACGCATTTACAATTCAATTCCGGAGTCACCTAGTGCAG”, 3620 fluorescence intensity (a.u.).
Take “TTTCCTCCTCGCCGCCGTCGCGTGGCGCGATGGCCGCCCCCGGAGTCACCTAGTGCAG”: the binding signal was 3750 fluorescence intensity (a.u.).
In the case of “CACTTGGTAATTACTTCTACTATGTCATCCTTATCATAATCGGAGTCACCTAGTGCAG”, the binding signal is 3200 fluorescence intensity (a.u.).
In the case of “CAAACCAAGCAAACGTTTGACAAGCGATGTGTGTCACTGTCGGAGTCACCTAGTGCAG” it was 4110 fluorescence intensity (a.u.); in that of “CCGGAGAATCTCATGTTGCCTAGTCGCCTAACCCGCCTAACGGAGTCACCTAGTGCAG”, 26300 fluorescence intensity (a.u.).
As for “CATCTCCACCTCTCCGATGGCCACGCTATCGATTTCCTCTCGGAGTCACCTAGTGCAG”, the figure is 3420 fluorescence intensity (a.u.); as for “GATGGATGATAGTTCTGTAGTATATATGACGACAGTCACTCGGAGTCACCTAGTGCAG”, 3490 fluorescence intensity (a.u.).
With “ACAGATAGTCTCACGCTAATATATACTTCTCTTGTTAGGTCGGAGTCACCTAGTGCAG”, the binding signal was 3650 fluorescence intensity (a.u.).
